Source: article PMC10617981

Sequences of proteins named here, by UniProt entry; tags and fusion partners are left off. Residues count along the entry.
UniProt Q7KZF4: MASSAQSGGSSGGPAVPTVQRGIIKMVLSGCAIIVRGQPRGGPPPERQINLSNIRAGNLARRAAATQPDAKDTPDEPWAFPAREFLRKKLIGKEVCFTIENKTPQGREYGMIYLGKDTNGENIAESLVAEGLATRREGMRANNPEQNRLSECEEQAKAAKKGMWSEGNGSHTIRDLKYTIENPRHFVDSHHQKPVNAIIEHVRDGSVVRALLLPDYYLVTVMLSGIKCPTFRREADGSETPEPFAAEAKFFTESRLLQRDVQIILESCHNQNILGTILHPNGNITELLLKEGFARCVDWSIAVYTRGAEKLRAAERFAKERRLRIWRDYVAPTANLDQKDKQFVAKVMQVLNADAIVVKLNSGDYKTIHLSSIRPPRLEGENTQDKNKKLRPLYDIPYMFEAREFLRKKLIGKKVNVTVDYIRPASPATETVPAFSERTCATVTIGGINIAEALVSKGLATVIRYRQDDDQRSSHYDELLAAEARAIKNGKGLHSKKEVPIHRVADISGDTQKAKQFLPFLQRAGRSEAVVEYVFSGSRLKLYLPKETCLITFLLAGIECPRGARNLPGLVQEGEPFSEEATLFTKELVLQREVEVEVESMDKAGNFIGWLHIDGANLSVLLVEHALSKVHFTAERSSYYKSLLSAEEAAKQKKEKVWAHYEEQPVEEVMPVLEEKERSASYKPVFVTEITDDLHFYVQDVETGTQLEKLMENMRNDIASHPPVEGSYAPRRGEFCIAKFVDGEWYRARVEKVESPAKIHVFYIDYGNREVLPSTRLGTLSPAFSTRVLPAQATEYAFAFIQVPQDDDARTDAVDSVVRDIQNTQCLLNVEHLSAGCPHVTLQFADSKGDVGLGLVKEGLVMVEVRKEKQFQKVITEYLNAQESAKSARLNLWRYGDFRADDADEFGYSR
UniProt Q9H4L5: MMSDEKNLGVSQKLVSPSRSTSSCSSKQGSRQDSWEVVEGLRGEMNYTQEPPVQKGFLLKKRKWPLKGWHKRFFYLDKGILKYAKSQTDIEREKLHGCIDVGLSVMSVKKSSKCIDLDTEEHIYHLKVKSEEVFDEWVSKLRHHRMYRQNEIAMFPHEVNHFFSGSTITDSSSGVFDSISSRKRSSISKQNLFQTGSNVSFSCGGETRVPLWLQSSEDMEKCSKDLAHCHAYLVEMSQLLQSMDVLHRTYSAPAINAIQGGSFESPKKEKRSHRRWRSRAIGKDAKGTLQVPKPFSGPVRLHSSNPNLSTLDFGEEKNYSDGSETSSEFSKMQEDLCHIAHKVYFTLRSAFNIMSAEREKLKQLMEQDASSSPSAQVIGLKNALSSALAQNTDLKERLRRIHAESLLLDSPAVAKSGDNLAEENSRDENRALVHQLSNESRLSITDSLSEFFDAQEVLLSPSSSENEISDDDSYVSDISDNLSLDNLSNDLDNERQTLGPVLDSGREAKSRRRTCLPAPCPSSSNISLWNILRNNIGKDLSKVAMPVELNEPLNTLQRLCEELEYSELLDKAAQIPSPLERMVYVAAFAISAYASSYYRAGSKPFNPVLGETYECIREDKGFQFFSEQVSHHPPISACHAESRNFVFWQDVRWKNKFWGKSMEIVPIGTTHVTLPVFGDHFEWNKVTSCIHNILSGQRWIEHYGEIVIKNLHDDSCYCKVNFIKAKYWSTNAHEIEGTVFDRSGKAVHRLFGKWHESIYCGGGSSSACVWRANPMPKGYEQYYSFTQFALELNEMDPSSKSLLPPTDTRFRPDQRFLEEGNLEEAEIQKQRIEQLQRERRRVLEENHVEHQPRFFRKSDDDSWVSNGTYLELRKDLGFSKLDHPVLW
UniProt P17302: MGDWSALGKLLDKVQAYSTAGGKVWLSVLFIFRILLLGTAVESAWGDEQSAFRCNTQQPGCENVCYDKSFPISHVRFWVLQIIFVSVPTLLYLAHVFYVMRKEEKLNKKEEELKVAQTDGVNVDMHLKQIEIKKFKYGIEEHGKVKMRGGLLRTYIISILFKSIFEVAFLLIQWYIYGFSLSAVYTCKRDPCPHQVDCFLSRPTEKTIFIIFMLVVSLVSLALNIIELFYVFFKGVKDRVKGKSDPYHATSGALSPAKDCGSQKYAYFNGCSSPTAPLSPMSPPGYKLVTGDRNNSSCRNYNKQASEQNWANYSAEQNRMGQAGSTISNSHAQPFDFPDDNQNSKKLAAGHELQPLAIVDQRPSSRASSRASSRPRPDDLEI
UniProt Q8NE71: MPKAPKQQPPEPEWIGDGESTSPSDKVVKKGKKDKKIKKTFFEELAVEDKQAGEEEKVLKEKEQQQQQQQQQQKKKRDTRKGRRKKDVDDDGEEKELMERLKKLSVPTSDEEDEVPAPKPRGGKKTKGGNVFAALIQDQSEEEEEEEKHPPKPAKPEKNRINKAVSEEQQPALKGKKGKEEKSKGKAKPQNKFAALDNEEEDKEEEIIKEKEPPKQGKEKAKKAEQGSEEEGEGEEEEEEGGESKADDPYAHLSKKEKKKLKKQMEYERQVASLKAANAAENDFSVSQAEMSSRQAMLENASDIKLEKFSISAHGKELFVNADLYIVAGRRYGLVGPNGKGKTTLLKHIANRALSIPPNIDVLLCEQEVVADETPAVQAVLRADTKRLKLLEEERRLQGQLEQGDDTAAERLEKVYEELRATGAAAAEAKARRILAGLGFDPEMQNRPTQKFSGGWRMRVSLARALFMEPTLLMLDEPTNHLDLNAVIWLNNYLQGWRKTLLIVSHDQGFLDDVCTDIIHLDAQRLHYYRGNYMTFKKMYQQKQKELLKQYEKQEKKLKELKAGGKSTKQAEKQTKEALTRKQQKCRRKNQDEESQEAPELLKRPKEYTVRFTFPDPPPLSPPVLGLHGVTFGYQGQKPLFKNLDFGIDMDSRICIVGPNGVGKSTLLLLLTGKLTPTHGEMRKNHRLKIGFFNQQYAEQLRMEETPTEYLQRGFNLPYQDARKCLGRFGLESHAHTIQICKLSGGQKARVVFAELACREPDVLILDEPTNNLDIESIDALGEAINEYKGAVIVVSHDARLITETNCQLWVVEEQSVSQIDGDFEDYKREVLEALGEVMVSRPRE
UniProt Q9UI09: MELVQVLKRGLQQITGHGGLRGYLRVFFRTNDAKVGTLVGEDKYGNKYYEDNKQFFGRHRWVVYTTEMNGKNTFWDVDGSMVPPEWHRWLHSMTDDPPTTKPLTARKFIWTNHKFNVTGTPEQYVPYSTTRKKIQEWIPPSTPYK
UniProt O14786, residues 22-923: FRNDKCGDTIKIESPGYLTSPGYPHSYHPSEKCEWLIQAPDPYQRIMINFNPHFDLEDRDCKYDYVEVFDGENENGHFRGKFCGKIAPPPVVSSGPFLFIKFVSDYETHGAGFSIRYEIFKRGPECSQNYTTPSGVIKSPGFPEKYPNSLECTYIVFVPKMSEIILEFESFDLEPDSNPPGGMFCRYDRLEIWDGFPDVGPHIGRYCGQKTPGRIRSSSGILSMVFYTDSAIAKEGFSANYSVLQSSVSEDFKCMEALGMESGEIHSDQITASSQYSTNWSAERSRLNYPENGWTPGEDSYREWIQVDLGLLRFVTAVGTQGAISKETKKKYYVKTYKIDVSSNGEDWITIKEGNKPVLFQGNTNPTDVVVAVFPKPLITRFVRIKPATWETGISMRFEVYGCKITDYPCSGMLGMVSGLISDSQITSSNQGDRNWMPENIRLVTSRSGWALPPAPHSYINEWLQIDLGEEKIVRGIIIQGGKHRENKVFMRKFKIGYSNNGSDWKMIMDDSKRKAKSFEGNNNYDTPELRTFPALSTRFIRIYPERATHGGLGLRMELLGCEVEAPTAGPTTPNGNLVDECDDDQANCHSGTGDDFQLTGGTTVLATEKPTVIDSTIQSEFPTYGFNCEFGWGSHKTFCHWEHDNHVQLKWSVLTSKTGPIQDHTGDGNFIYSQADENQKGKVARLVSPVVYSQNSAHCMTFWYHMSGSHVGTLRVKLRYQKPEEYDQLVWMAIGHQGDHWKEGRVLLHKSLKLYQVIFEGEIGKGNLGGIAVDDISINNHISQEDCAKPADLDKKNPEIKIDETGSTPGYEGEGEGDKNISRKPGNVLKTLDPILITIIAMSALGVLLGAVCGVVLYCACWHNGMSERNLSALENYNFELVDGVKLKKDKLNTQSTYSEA

Each substance was assayed against staphylococcal nuclease domain-containing protein 1 (SND1), endogenous (human (endogenous in A549^ACE2)) (UniProt Q7KZF4) (assay: affinity purification with mass spectrometry).

binding | Substance
binds | OSBPL3 (from UniProt Q9H4L5 1-887)
binds | GJA1 (from UniProt P17302 1-382)
binds | ABCF1 (from UniProt Q8NE71 1-845)
binds | NDUFA12 (from UniProt Q9UI09 1-145)
binds | NRP1 (from UniProt O14786 22-923)

Substance | binding
SARS-CoV-2 NSP3 (from UniProt P0DTD1 819-2763) | binds
SARS-CoV-2 NSP4 (from UniProt P0DTD1 2764-3263) | binds
SARS-CoV-2 NSP9 made during infection (from UniProt P0DTD1 4141-4253) | binds

No constants are given. Whether binding was seen depends on the method and setting. Binding seen in cells or lysates may run through a third protein. These calls come from enrichment with a bait or labelling near it, and not all partners need be listed.
